# Data as given in US20240417469A1.
# By UniProt entry, the sequences of proteins in these tests, tags left out. Where a name states a change or a piece, a line headed by the entry shows the natural chain unless it says otherwise.
# UniProt P07766: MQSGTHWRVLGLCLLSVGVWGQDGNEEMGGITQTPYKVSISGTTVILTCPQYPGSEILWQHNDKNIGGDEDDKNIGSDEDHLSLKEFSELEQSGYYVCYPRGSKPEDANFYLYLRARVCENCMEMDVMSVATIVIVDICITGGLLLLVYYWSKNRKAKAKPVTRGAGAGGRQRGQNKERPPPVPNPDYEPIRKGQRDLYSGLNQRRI
# UniProt P04234: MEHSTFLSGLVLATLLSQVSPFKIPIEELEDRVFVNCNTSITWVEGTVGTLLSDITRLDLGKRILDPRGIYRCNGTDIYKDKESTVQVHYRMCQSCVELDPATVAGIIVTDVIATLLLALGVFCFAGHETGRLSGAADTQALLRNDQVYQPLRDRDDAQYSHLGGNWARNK
# No constants are given. Whether binding was seen depends on the method and setting. Some entries that bind do so weakly or less than the wild type.
# Target: human CD3 protein (human) (UniProt P07766+P04234)
# Assay: ELISA
row,Binder,binding
1,"Hu192A7B9-12 (antibody, V domains shown) VH: EVQLQESGPGLVKPSETLSLTCTVSGFSLTSYNVHWVRQPPGKGLEWMGRMRYNGDTSYNSALKSRLTISRDTSKNQVSLKLSSVTAADTAVYYCTRGPRGGYYSALFDYWGQGTMVTVSS VL: DIQMTQSPSSLSASVGDRVTITCKASQNINRYLNWYQQKPGKAPKLLISIANSLQTGVPSRFSGSGSGTDFTLTISSLQPEDFATYYCLQHNSWYTFGQGTKLEIK",binds
2,"Hu192A7B9-10 (antibody, V domains shown) VH: EVQLQESGPGLVKPSETLSLTCTVSGGSISSYNVHWVRQPPGKGLEWMGRMRYNGDTSYNSALKSRLTISRDTSKNQFSLKLSSVTAADTAVYYCTRGPRGGYYSALFDYWGQGTMVTVSS VL: DIQMTQSPSSLSASVGDRVTITCKASQNINRYLNWYQQKPGKAPKLLISIANSLQTGVPSRFSGSGSGTDFTLTISSLQPEDFATYYCLQHNSWYTFGQGTKLEIK",binds
3,"Hu192A7B9-19 (antibody, V domains shown) VH: EVQLQESGPGLVKPSETLSLTCTVSGGSISSYNVHWIRQPPGKGLEWIGRMRYNGDTSYNSALKSRVTISVDTSKNQFSLKLSSVTAADTAVYYCARGPRGGYYSALFDYWGQGTMVTVSS VL: DIQMTQSPSSLSASVGDRVTITCKASQNINRYLNWYQQKPGKAPKVLISIANSLQTGIPSRFSGSGSGTDFTLTISSLQPEDFATYFCLQHNSWYTFGQGTKLEIK",binds
4,"Hu192A7B9-5 (antibody, V domains shown) VH: EVQLQESGPGLVKPSETLSLTCTVSGFSISSYNVHWVRQPPGKGLEWMGRMRYNGDTSYNSALKSRLTISRDTSKNQVSLKLSSVTAADTAVYYCTRGPRGGYYSALFDYWGQGTMVTVSS VL: DIQMTQSPSSLSASVGDRVTITCKASQNINRYLNWYQQKPGKAPKLLIYIANSLQTGVPSRFSGSGSGTDFTLTISSLQPEDFATYYCLQHNSWYTFGQGTKLEIK",binds
5,"Hu192A7B9-13 (antibody, V domains shown) VH: EVQLQESGPGLVKPSETLSLTCTVSGGSISSYNVHWIRQPPGKGLEWIGRMRYNGDTSYNSALKSRVTISVDTSKNQFSLKLSSVTAADTAVYYCARGPRGGYYSALFDYWGQGTMVTVSS VL: DIQMTQSPSSLSASVGDRVTITCKASQNINRYLNWYQQKPGKAPKLLISIANSLQTGIPSRFSGSGSGTDFTLTISSLQPEDFATYYCLQHNSWYTFGQGTKLEIK",binds
6,"Hu192A7B9-15 (antibody, V domains shown) VH: EVQLQESGPGLVKPSETLSLTCTVSGGSISSYNVHWVRQPPGKGLEWMGRMRYNGDTSYNSALKSRLTISRDTSKNQFSLKLSSVTAADTAVYYCARGPRGGYYSALFDYWGQGTMVTVSS VL: DIQMTQSPSSLSASVGDRVTITCKASQNINRYLNWYQQKPGKAPKLLISIANSLQTGIPSRFSGSGSGTDFTLTISSLQPEDFATYYCLQHNSWYTFGQGTKLEIK",binds
7,"Hu192A7B9-14 (antibody, V domains shown) VH: EVQLQESGPGLVKPSETLSLTCTVSGGSISSYNVHWVRQPPGKGLEWIGRMRYNGDTSYNSALKSRVTISRDTSKNQFSLKLSSVTAADTAVYYCARGPRGGYYSALFDYWGQGTMVTVSS VL: DIQMTQSPSSLSASVGDRVTITCKASQNINRYLNWYQQKPGKAPKLLISIANSLQTGIPSRFSGSGSGTDFTLTISSLQPEDFATYYCLQHNSWYTFGQGTKLEIK",binds

# The remaining lines, values ahead:
row,binding,Binder
1,binds,"Hu192A7B9-4 (antibody, V domains shown) VH: EVQLQESGPGLVKPSETLSLTCTVSGGSISSYNVHWVRQPPGKGLEWMGRMRYNGDTSYNSALKSRLTISRDTSKNQFSLKLSSVTAADTAVYYCTRGPRGGYYSALFDYWGQGTMVTVSS VL: DIQMTQSPSSLSASVGDRVTITCKASQNINRYLNWYQQKPGKAPKLLIYIANSLQTGVPSRFSGSGSGTDFTLTISSLQPEDFATYYCLQHNSWYTFGQGTKLEIK"
2,binds,"Hu192A7B9-11 (antibody, V domains shown) VH: EVQLQESGPGLVKPSETLSLTCTVSGFSISSYNVHWVRQPPGKGLEWMGRMRYNGDTSYNSALKSRLTISRDTSKNQVSLKLSSVTAADTAVYYCTRGPRGGYYSALFDYWGQGTMVTVSS VL: DIQMTQSPSSLSASVGDRVTITCKASQNINRYLNWYQQKPGKAPKLLISIANSLQTGVPSRFSGSGSGTDFTLTISSLQPEDFATYYCLQHNSWYTFGQGTKLEIK"
3,binds,"Hu192A7B9-7 (antibody, V domains shown) VH: EVQLQESGPGLVKPSETLSLTCTVSGGSISSYNVHWIRQPPGKGLEWIGRMRYNGDTSYNSALKSRVTISVDTSKNQFSLKLSSVTAADTAVYYCARGPRGGYYSALFDYWGQGTMVTVSS VL: DIQMTQSPSSLSASVGDRVTITCKASQNINRYLNWYQQKPGKAPKLLISIANSLQTGVPSRFSGSGSGTDFTLTISSLQPEDFATYYCLQHNSWYTFGQGTKLEIK"
4,binds,"Hu192A7B9-18 (antibody, V domains shown) VH: EVQLQESGPGLVKPSETLSLTCTVSGFSLTSYNVHWVRQPPGKGLEWMGRMRYNGDTSYNSALKSRLTISRDTSKNQVSLKLSSVTAADTAVYYCTRGPRGGYYSALFDYWGQGTMVTVSS VL: DIQMTQSPSSLSASVGDRVTITCKASQNINRYLNWYQQKPGKAPKLLISIANSLQTGIPSRFSGSGSGTDFTLTISSLQPEDFATYYCLQHNSWYTFGQGTKLEIK"
5,binds,"Hu192A7B9-9 (antibody, V domains shown) VH: EVQLQESGPGLVKPSETLSLTCTVSGGSISSYNVHWVRQPPGKGLEWMGRMRYNGDTSYNSALKSRLTISRDTSKNQFSLKLSSVTAADTAVYYCARGPRGGYYSALFDYWGQGTMVTVSS VL: DIQMTQSPSSLSASVGDRVTITCKASQNINRYLNWYQQKPGKAPKLLISIANSLQTGVPSRFSGSGSGTDFTLTISSLQPEDFATYYCLQHNSWYTFGQGTKLEIK"
6,binds,"Hu192A7B9-6 (antibody, V domains shown) VH: EVQLQESGPGLVKPSETLSLTCTVSGFSLTSYNVHWVRQPPGKGLEWMGRMRYNGDTSYNSALKSRLTISRDTSKNQVSLKLSSVTAADTAVYYCTRGPRGGYYSALFDYWGQGTMVTVSS VL: DIQMTQSPSSLSASVGDRVTITCKASQNINRYLNWYQQKPGKAPKLLIYIANSLQTGVPSRFSGSGSGTDFTLTISSLQPEDFATYYCLQHNSWYTFGQGTKLEIK"
7,binds,"Hu192A7B9-16 (antibody, V domains shown) VH: EVQLQESGPGLVKPSETLSLTCTVSGGSISSYNVHWVRQPPGKGLEWMGRMRYNGDTSYNSALKSRLTISRDTSKNQFSLKLSSVTAADTAVYYCTRGPRGGYYSALFDYWGQGTMVTVSS VL: DIQMTQSPSSLSASVGDRVTITCKASQNINRYLNWYQQKPGKAPKLLISIANSLQTGIPSRFSGSGSGTDFTLTISSLQPEDFATYYCLQHNSWYTFGQGTKLEIK"
8,binds,"Hu192A7B9-8 (antibody, V domains shown) VH: EVQLQESGPGLVKPSETLSLTCTVSGGSISSYNVHWVRQPPGKGLEWIGRMRYNGDTSYNSALKSRVTISRDTSKNQFSLKLSSVTAADTAVYYCARGPRGGYYSALFDYWGQGTMVTVSS VL: DIQMTQSPSSLSASVGDRVTITCKASQNINRYLNWYQQKPGKAPKLLISIANSLQTGVPSRFSGSGSGTDFTLTISSLQPEDFATYYCLQHNSWYTFGQGTKLEIK"
9,binds,"Hu192A7B9-17 (antibody, V domains shown) VH: EVQLQESGPGLVKPSETLSLTCTVSGFSISSYNVHWVRQPPGKGLEWMGRMRYNGDTSYNSALKSRLTISRDTSKNQVSLKLSSVTAADTAVYYCTRGPRGGYYSALFDYWGQGTMVTVSS VL: DIQMTQSPSSLSASVGDRVTITCKASQNINRYLNWYQQKPGKAPKLLISIANSLQTGIPSRFSGSGSGTDFTLTISSLQPEDFATYYCLQHNSWYTFGQGTKLEIK"
